Measured values as given in publication PMC10838953.

Test system: 786-O cells
Conditions: 5 μM, 24h, corrected p <0.05, |log2FC| > 0.5

| Compound | genes significantly differentially expressed compared to DMSO |
| --- | --- |
| O=C(O)c1ccc2c(c1)nc(Nc1cccc(Cl)c1)c1ccncc12 [CX-4945, silmitasertib] | 102 |
| CC(C)COC(=O)c1[nH]c2ccc(F)cc2c1-c1cn(CC2CCN(CCNS(=O)(=O)c3ccc(CC(C)C)cc3)CC2)nn1 [AB668, isobutyl 5-fluoro-3-(1-((1-(2-((4-isobutylphenyl)sulfonamido)ethyl)piperidin-4-yl)methyl)-1H-1,2,3-triazol-4-yl)-1H-indole-2-carboxylate] | 48 |
